Library screening results

Protein sequences, listed by entry. Tags and fused reporters are not part of them.
UniProt E9BF75, entry or part of it: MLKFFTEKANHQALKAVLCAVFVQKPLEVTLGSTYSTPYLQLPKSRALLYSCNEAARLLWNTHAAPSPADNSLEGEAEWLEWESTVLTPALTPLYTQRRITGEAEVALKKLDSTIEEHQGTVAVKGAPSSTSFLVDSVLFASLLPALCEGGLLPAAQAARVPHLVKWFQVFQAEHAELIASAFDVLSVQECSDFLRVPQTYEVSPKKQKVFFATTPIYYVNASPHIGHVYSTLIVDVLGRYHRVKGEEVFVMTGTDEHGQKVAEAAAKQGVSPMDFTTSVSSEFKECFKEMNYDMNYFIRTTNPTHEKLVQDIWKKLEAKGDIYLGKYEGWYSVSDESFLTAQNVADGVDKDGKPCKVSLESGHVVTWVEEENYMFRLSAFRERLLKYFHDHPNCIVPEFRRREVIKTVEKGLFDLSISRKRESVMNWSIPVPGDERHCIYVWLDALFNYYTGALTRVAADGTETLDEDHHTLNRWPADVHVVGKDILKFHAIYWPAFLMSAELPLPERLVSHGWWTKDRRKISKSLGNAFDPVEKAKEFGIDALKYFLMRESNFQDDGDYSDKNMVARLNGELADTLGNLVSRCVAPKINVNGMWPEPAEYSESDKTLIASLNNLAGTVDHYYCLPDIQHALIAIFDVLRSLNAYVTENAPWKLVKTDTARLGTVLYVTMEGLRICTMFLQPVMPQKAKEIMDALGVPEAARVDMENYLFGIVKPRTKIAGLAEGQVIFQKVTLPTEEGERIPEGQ

From ChEMBL document CHEMBL3988442, “University of Dundee, Small-Polar-MMV Screening Library” (2021).

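Primary screen of methionyl-tRNA synthetase; the read-out is not stated. Target: Methionyl-tRNA synthetase (putative), Leishmania donovani (UniProt E9BF75). The test concentration is not given. The values are filed as inhibition. Of about 68,000 compounds tested this way, about 24 (0.035%) reached 50% or more in at least one test.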

Results are percentages, as filed. The controls that fix the scale are not given in the record; negative values are as filed. This is an unselected part of the compounds tested.

structure,Inhibition
O=C(c1ccc(Br)o1)N1CCCC(n2cncn2)C1 (centres unmarked),2.655
COC(=O)C(C)N1CCCc2cc(OC)ccc2C1 (centres unmarked),7.394
Nc1nc(CCCNC(=O)c2ccccc2C2CCNC2)cs1 (centres unmarked),13.94
COc1cccc2ncn(C(C)Cn3cccn3)c(=O)c12 (centres unmarked),-1.535
CC(C#N)CNS(=O)(=O)c1ccc(F)c(Br)c1 (centres unmarked),17.29
O=S(=O)(NCc1cn2ccccc2n1)N1CCOCC1,13.73
CN1CCN(C[C@@H]2CN(C(=O)NCC3CCCCC3)C[C@@H]2CO)CC1,6.812
Cc1ccc(N2CCCC(NCc3ccccn3)C2)nn1 (centres unmarked),14.81
c1cncc(O[C@H]2CC[C@H]3[C@H]2OCCN3C2CCCC2)c1,16.88
CN(Cc1cccc(OC(F)(F)F)c1)C(=O)c1ccncc1F,1.795
O=C(NCC1CCN(CCc2ccccc2)C1)c1c(F)cccc1F (centres unmarked),7.692
CC(C)(O)CN1CCN(C(=O)c2cccnc2O)CC1,8.589
Cc1nc2ncnn2c(C)c1CCC(=O)Nc1cccn(C)c1=O,20.33
Cc1nc(C(=O)N2CCCC2c2c(C)nn(C)c2Cl)ccc1C#N (centres unmarked),20.34
Cc1ccccc1CN(C)C(=O)Cn1nc(-c2ccc(F)cc2)oc1=O,-0.2882
Cc1cc(N2CCCCC2Cn2nc(C)cc2C)n2ncnc2n1 (centres unmarked),19.37
O=C(c1cscn1)N1CC[C@H]2C[C@H](c3nnc(C4CC4)o3)O[C@@H]2C1,7.752
CNC(=O)CC1CC2(CCN(CC3CC3)CC2)Oc2ccccc21 (centres unmarked),17.93
COc1ccc(OC)c(C2CCN(C3CCN(C(C)=O)CC3)C2)c1 (centres unmarked),4.57
O=S(=O)(NCC(O)c1ccc(C(F)(F)F)cc1)C1CC1 (centres unmarked),-2.158
Cc1nc(C2CCCN2C(=O)Cn2cncn2)no1 (centres unmarked),14.77
O=C1CC[C@@H]2[C@@H](CCN2Cc2ccccn2)N1CC1CC1,20.73
Cc1nc(C)c(CC(=O)NCc2ccc(F)cc2F)s1,2.158
COc1ccc(C(C)N2CCN(Cc3nccn3C)CC2)cc1Cl (centres unmarked),14.17
CCOc1ccccc1CNC1CCCN(Cc2noc(C)n2)C1 (centres unmarked),20.56
CCCC(=O)N(C)c1cccc2ncccc12,7.292
O=C1CC2(CCSC2)C(=O)N1Cc1coc(-c2ccc(F)cc2)n1 (centres unmarked),14.73
CNC(=O)c1ccc(OC)c(NCc2noc(-c3cccs3)n2)c1,11.71
COC(=O)c1ccc(N(C(=O)c2cccnc2C)C(C)C)c(C)c1,5.866
O=S(=O)(NCCCn1cncn1)c1ccc2c(c1)CCO2,6.504
CC(C)CS(=O)(=O)N1CCC2(CN(c3cccc(F)c3)C(=O)CN2C)C1 (centres unmarked),2.857
CCc1c(C)nc(C2CCCN2C(=O)c2cc(C)no2)nc1O (centres unmarked),6.771
Cc1noc(CN2CC=C(c3cnn(C4CCS(=O)(=O)C4)c3)CC2)n1 (centres unmarked),13.94
Cc1ncccc1-c1cc2cccnc2n1CCCNC(=O)C(C)(C)C,11.75
CC(=O)N1CCN(CCOc2ccc(F)cc2)CC(C(N)=O)C1 (centres unmarked),10.97
N#Cc1cccc(NC(=O)N(CC(F)F)C2CC2)c1,9.549
CCC[C@]12CN3C[C@](C)(CN(C1)C3c1[nH]c(=O)[nH]c(=O)c1C)C2=O (some centres unmarked),11.11
O=c1ccc(-n2ccnc2)nn1CCNS(=O)(=O)c1ccc(F)c(Cl)c1,10.79
Cc1nc(C2CCCN2Cc2nnc(C3CC3)o2)no1 (centres unmarked),2.857
Cn1c(C(=O)NS(C)(=O)=O)ccc1-c1ccccc1,14.64
CCOC(=O)N1CCN(C(=O)c2snnc2-c2ccc(OC)cc2)CC1,8.579
O=C1COc2cc(C(=O)NS(=O)(=O)c3ccc(F)c(F)c3)ccc2N1,7.429
O=C(CN1C(=O)CCNC1=O)N1CCC2(CCc3ccccc32)CC1,10.96
CC(C)Cn1cnnc1C1CCCN1C(=O)c1ccc(F)cc1F (centres unmarked),13.71
COc1ccc(N2CCC(N3C[C@H](NC(C)=O)[C@@H](C(C)C)C3)CC2)cc1,4.177
O=C(NCC(O)(c1ccco1)C1CC1)c1ccccc1F (centres unmarked),16.38
CNc1cc(C)nc(-c2cc(NCCO)nc3[nH]ccc23)n1,8.411
O=S(=O)(c1cn[nH]c1)N1CCC(O)(CN2CCC(F)(F)CC2)C1 (centres unmarked),6.977
CC(c1ccc(F)cc1F)N1CCN(CCC(=O)NC(N)=O)CC1 (centres unmarked),14.63